Measurements from PMC11963662.
No constants are given. Whether binding was seen depends on the method and setting. Binding seen in cells or lysates may run through a third protein. Some results given as binding are weak or reduced against the parent protein; the word gives no strength.

T1: lipoyltransferase 1 (LIPT1) (human) (UniProt Q9Y234)
T1 sequence: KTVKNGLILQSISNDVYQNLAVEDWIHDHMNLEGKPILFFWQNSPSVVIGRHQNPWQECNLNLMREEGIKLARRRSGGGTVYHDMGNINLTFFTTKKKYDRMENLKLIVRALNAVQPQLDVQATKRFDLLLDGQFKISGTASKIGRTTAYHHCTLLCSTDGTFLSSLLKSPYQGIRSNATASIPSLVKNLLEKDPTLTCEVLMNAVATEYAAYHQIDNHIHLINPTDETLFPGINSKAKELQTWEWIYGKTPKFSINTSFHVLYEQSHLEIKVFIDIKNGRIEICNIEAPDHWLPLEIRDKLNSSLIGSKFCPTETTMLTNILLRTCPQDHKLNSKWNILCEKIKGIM

T2: ferredoxin 1 (FDX1) (human) (UniProt P10109)
T2 sequence: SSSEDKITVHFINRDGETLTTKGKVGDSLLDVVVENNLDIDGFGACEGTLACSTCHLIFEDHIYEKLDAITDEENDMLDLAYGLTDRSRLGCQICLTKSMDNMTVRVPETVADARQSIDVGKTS

T3: ferredoxin 1 (FDX1) (human), P10109
T3 chain: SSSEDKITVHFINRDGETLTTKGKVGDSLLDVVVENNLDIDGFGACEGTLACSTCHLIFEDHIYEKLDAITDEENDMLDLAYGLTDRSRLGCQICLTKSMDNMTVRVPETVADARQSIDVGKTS


What was measured:
Test in all cases: co-IP; Co-IP kit (IEMed, K235); 2 x 10^7 cells crosslinked with 1% formaldehyde at room temperature for 10 min, heat denatured at 95 °C for 15 min; antibody-Protein A/G magnetic beads (anti-FDX1, anti-LIPT1); detection by Western blot
[1] = biological target: T1, lipoyltransferase 1 (LIPT1) (human)
[2] = biological target: T2, ferredoxin 1 (FDX1) (human)
[3] = biological target: T3, ferredoxin 1 (FDX1) (human), P10109; details: remark: other sources report otherwise

binding [1] | binding [2] | binding [3] | Binder
binds | binds |  | pyruvate dehydrogenase complex isoform (DLAT) (enzyme, UniProt P10515 87-647) SLPPHQKVPLPSLSPTMQAGTIARWEKKEGDKINEGDLIAEVETDKATVGFESLEECYMAKILVAEGTRDVPIGAIICITVGKPEDIEAFKNYTLDSSAAPTPQAAPAPTPAATASPPTPSAQAPGSSYPPHMQVLLPALSPTMTMGTVQRWEKKVGEKLSEGDLLAEIETDKATIGFEVQEEGYLAKILVPEGTRDVPLGTPLCIIVEKEADISAFADYRPTEVTDLKPQVPPPTPPPVAAVPPTPQPLAPTPSAPCPATPAGPKGRVFVSPLAKKLAVEKGIDLTQVKGTGPDGRITKKDIDSFVPSKVAPAPAAVVPPTGPGMAPVPTGVFTDIPISNIRRVIAQRLMQSKQTIPHYYLSIDVNMGEVLLVRKELNKILEGRSKISVNDFIIKASALACLKVPEANSSWMDTVIRQNHVVDVSVAVSTPAGLITPIVFNAHIKGVETIANDVVSLATKAREGKLQPHEFQGGTFTISNLGMFGIKNFSAIINPPQACILAIGASEDKLVPADNEKGFDVASMMSVTLSCDHRVVDGAVGAQWLAEFRKYLEKPITMLL
 | binds |  | lipoyltransferase 1 (LIPT1) (enzyme, UniProt Q9Y234 26-373) KTVKNGLILQSISNDVYQNLAVEDWIHDHMNLEGKPILFFWQNSPSVVIGRHQNPWQECNLNLMREEGIKLARRRSGGGTVYHDMGNINLTFFTTKKKYDRMENLKLIVRALNAVQPQLDVQATKRFDLLLDGQFKISGTASKIGRTTAYHHCTLLCSTDGTFLSSLLKSPYQGIRSNATASIPSLVKNLLEKDPTLTCEVLMNAVATEYAAYHQIDNHIHLINPTDETLFPGINSKAKELQTWEWIYGKTPKFSINTSFHVLYEQSHLEIKVFIDIKNGRIEICNIEAPDHWLPLEIRDKLNSSLIGSKFCPTETTMLTNILLRTCPQDHKLNSKWNILCEKIKGIM
 |  | binds | lipoic acid synthase (LIAS), O43766 28-372 (enzyme) LSSLPDKKKELLQNGPDLQDFVSGDLADRSTWDEYKGNLKRQKGERLRLPPWLKTEIPMGKNYNKLKNTLRNLNLHTVCEEARCPNIGECWGGGEYATATATIMLMGDTCTRGCRFCSVKTARNPPPLDASEPYNTAKAIAEWGLDYVVLTSVDRDDMPDGGAEHIAKTVSYLKERNPKILVECLTPDFRGDLKAIEKVALSGLDVYAHNVETVPELQSKVRDPRANFDQSLRVLKHAKKVQPDVISKTSIMLGLGENDEQVYATMKALREADVDCLTLGQYMQPTRRHLKVEEYITPEKFKYWEKVGNELGFHYTASGPLVRSSYKAGEFFLKNLVAKRKTKDL
